These are yes or no findings as the source states them, for the method shown.
Legend:
[1] = target: human SH3BGRL-3 (human) (UniProt Q9H299); assay: AUC
[2] = target: human SH3BGRL-2 (human) (UniProt Q9UJC5); assay: AUC

Chains of the proteins cited; added tags and fusions are not shown.
UniProt Q9H299: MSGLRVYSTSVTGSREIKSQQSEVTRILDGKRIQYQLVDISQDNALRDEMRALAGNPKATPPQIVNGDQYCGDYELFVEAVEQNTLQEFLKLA
UniProt Q9UJC5: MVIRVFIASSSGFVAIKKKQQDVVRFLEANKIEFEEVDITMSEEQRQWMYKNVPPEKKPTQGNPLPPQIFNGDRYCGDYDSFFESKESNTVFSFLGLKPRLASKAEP

| Substance | binding [1] | binding [2] |
| --- | --- | --- |
| human SH3BGRL-3 (from UniProt Q9H299 1-93) | no binding |  |
| human SH3BGRL-2 (from UniProt Q9UJC5 1-107) |  | no binding (tested: 17 µM) |

Reference: paper doi:10.1101/2025.03.25.645244
